No constants are given. Whether binding was seen depends on the method and setting. Some results given as binding are weak or reduced against the parent protein; the word gives no strength.
Target: neurotensin receptor 1 (NTR1) of PC3 cells (UniProt P30989)
Assay: UV crosslinking on PC3 cells, immunoprecipitation with Ab-NTR1

B1: ^125I-[4-azido-Phe^6]-NT (peptide)
peptide: ELYENFPRRPYIL
modifications: 4-azido-Phe at position 6; pGlu at position 1; 125I iodinated
notes: the residue at 6 is 4-azido-phenylalanine
binding: binds

From patent US20090203048A1 (UNIVERSITY OF MASSACHUSETTS, published 2009)
